No constants are given. Whether binding was seen depends on the method and setting. In cells and extracts the contact can be indirect. Some binding calls cover weakened binding; strength is not graded here. Each block holds one molecule with its values, some of them ahead of it.
Target: Recombinant human HMGB1 B box (residues 90–175) (human) (UniProt P09429)
Assay: pull-down; His-tagged B box (100 μg) on a Ni-beads column, reacted with or without celastrol (equimolar or five-fold) for 1 h; 500 μg lysate of primary neurons added, 2 h at 4 °C; eluted; Western blot with antibodies against TLR4 and RAGE; only the target purified

Chains of the proteins cited; added tags and fusions are not shown. Residues count along the entry.
UniProt P09429, residues 90-175: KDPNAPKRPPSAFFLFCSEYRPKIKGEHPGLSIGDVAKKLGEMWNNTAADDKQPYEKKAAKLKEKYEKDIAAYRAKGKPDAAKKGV
UniProt Q63495, residues 23-402: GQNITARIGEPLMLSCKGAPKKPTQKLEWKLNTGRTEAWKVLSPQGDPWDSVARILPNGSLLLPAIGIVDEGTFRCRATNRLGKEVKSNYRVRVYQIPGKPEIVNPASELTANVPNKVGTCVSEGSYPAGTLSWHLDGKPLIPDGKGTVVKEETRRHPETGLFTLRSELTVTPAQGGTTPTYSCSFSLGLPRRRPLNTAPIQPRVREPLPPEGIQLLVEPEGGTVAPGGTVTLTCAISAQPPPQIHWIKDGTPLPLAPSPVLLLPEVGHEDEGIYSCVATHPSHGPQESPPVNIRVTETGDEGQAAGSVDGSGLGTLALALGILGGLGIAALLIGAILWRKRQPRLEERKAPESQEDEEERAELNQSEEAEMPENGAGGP

binding: binds
Molecule: Receptor for advanced glycation endproducts (from UniProt Q63495 23-402)

binding: binds
B1: Toll-like receptor 4 (receptor, UniProt Q9QX05 26-835)
chain: NPCIEVLPNITYQCMDQNLSKIPHDIPYSTKNLDLSFNPLKILRSYSFTNFSQLQWLDLSRCEIETIEDKAWHGLNQLSTLVLTGNPIKSFSPGSFSGLTNLENLVAVETKMTSLEGFHIGQLISLKKLNVAHNLIHSFKLPEYFSNLTNLEHVDLSYNYIQTISVKDLQFLRENPQVNLSLDLSLNPIDSIQAQAFQGIRLHELTLRSNFNSSNVLKMCLQNMTGLHVHRLILGEFKNERNLESFDRSVMEGLCNVSIDEFRLTYINHFSDDIYNLNCLANISAMSFTGVHIKHIADVPRHFKWQSLSIIRCHLKPFPKLSLPFLKSWTLTTNREDISFGQLALPSLRYLDLSRNAMSFRGCCSYSDFGTNNLKYLDLSFNGVILMSANFMGLEELEYLDFQHSTLKKVTEFSVFLSLEKLLYLDISYTNTKIDFDGIFLGLISLNTLKMAGNSFKDNTLSNVFTNTTNLTFLDLSKCQLEQISRGVFDTLYRLQLLNMSHNNLLFLDPSHYKQLYSLRTLDCSFNRIETSKGILQHFPKSLAVFNLTNNSVACICEYQNFLQWVKDQKMFLVNVEQMKCASPIDMKASLVLDFTNSTCYIYKTIISVSVVSVLVVATVAFLIYHFYFHLILIAGCKKYSRGESIYDAFVIYSSQNEDWVRNELVKNLEEGVPRFQLCLHYRDFIPGVAIAANIIQEGFHKSRKVIVVVSRHFIQSRWCIFEYEIAQTWQFLSSRSGIIFIVLEKVEKSLLRQQVELYRLLSRNTYLEWEDNALGRHIFWRRLKKALLDGKALNPDETSEEEQEATTLT

Source: article PMC8353826, “Celastrol exerts a neuroprotective effect by directly binding to HMGB1 protein in cerebral ischemia–reperfusion” (Journal of Neuroinflammation, 2021)
